# Primary screen of a compound library

Chains of the proteins cited; added tags and fusions are not shown. Residues count along the entry.
UniProt I6X8D2, whole entry: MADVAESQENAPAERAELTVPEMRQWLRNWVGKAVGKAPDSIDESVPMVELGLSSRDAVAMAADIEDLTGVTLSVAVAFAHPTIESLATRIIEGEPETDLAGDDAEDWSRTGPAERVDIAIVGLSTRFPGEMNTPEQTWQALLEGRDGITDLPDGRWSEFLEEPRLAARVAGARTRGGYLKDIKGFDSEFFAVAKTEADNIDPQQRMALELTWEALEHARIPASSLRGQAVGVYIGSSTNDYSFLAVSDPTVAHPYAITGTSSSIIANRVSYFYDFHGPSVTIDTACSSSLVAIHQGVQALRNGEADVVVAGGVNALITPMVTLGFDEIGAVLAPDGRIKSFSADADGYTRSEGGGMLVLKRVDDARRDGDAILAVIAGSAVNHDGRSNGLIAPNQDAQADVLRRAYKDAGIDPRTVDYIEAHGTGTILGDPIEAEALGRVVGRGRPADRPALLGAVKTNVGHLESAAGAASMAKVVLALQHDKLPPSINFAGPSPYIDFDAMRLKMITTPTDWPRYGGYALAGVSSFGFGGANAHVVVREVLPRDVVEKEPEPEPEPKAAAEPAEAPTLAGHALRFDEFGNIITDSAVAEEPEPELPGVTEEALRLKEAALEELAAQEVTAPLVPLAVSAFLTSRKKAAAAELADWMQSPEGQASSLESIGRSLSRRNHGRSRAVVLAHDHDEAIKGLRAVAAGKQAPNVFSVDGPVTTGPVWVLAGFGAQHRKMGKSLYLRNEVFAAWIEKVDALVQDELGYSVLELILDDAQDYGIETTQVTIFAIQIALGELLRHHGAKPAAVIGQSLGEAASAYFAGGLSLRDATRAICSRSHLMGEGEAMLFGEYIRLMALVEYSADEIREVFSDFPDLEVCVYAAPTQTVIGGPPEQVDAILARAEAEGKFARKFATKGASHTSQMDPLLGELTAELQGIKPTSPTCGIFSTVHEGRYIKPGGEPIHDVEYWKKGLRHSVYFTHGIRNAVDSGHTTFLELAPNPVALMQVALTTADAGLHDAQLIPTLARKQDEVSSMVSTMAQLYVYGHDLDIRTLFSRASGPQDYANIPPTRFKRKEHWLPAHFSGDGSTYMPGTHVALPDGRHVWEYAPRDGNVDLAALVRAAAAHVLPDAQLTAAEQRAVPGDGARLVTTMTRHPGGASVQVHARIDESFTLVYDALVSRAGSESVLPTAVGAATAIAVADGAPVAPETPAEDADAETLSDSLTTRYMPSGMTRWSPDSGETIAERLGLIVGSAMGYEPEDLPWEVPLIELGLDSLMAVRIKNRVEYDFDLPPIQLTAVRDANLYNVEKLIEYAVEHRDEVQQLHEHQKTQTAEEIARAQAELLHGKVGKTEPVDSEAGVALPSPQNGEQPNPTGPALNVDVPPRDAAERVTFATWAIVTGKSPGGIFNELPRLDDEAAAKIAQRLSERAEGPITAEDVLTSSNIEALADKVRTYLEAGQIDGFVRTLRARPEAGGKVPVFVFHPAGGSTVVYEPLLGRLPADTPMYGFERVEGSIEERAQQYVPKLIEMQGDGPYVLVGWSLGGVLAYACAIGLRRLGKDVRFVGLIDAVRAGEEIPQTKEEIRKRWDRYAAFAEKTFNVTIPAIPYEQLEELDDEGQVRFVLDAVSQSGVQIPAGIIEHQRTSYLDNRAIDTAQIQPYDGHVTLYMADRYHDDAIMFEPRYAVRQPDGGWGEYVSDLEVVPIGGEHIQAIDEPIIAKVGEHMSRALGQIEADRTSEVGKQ
UniProt A4I591, 1-473: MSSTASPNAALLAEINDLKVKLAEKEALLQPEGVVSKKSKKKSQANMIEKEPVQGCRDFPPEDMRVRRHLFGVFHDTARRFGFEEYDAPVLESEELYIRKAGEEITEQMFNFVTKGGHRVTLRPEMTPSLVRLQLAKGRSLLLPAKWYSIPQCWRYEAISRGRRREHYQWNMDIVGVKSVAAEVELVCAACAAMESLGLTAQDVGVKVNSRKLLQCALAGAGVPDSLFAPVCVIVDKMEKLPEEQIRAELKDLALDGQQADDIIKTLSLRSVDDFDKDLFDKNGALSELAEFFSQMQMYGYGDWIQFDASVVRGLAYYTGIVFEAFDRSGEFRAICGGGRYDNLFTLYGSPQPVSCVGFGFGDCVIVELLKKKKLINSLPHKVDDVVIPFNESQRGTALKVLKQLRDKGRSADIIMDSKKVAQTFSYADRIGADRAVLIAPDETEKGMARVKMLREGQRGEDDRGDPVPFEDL
UniProt P9WPC5, whole entry: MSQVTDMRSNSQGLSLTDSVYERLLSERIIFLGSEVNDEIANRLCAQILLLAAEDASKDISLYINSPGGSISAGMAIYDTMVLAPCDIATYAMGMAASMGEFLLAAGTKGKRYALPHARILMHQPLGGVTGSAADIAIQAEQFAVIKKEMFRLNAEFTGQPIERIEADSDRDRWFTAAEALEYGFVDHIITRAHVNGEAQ
UniProt P9WPC3, whole entry partner: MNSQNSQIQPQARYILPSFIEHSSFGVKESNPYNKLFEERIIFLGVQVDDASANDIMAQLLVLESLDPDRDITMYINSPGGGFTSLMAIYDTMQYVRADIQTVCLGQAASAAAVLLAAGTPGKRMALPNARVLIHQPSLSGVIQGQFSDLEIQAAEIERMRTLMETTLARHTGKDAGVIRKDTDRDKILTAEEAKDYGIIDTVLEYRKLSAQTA
UniProt P9WNZ1, whole entry: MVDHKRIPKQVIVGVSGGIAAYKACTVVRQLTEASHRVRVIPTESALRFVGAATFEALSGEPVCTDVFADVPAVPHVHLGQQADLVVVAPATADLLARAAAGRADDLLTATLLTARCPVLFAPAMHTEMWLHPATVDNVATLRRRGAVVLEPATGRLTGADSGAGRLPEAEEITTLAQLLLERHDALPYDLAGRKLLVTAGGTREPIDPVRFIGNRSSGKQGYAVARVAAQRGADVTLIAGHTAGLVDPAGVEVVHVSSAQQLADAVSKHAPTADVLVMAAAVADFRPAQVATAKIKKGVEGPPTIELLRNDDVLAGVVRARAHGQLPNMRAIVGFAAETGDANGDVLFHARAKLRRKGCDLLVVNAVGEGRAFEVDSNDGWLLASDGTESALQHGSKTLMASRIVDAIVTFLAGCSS

Pks13 thioesterase: 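Polyketide synthase Pks13, Mycobacterium tuberculosis (UniProt I6X8D2). Enzyme assay of the thioesterase domain of polyketide synthase 13; the read-out is not stated. Compounds at 30 µM. The record gives no direction; the compounds picked for IC50 retests had high values, so higher reads as stronger inhibition. Of about 67,000 compounds tested this way, about 300 (0.46%) reached 50% or more in at least one test.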
LiHisRS: 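Histidine-tRNA ligase, Leishmania infantum (UniProt A4I591). Enzyme assay of histidyl-tRNA synthetase; the read-out is not stated. Compounds at 30 µM. The record gives no direction; compounds that gave an IC50 in retests scored well above the rest, so higher reads as stronger inhibition. The assay is labelled LdHisRS but filed under L. infantum. Of about 69,000 compounds tested this way, about 410 (0.6%) reached 50% or more in at least one test.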
Leishmania in macrophages: 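Cell assay of Leishmania donovani living inside macrophages; the read-out is not stated. Tested at 30 µM. Direction is inferred from retests: higher values go with stronger inhibition. Of about 69,000 compounds tested this way, about 1,000 (1.5%) reached 50% or more in at least one test.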
ClpP1P2: 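Protease assay of ClpP1P2, read by the AMC dye that it sets free. Target: ClpP1P2, Mycobacterium tuberculosis (UniProt P9WPC5 and UniProt P9WPC3). Tested at 50 µM. Direction is inferred from only a few compounds that gave an IC50; most scored high, so higher reads as stronger inhibition. Most other retested compounds had strongly negative values. Size under these conditions: about 69,000 compounds, about 10 of them at 50% or above in at least one test.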
Toxoplasma: 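Assay of Toxoplasma gondii numbers, read through their beta-galactosidase reporter with a colour substrate. Concentration: 10 µM. The record gives no direction; the compounds picked for IC50 retests had high values, so higher reads as fewer parasites. Of about 67,000 compounds tested this way, about 260 (0.38%) reached 50% or more in at least one test.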
CoaBC: 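Coenzyme A biosynthesis protein CoaBC, Mycobacterium tuberculosis (UniProt P9WNZ1). Enzyme assay of CoaBC with a phosphate dye (Biomol Green) read at 650 nm. Tested at 30 µM. Direction is inferred from only a few compounds that gave an IC50; most scored high, so higher reads as stronger inhibition. Most strong results did not repeat in a second test. Size under these conditions: about 67,000 compounds, about 40 of them at 50% or above in at least one test.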

Results are given as percent effect.
How 0% and 100% were set is not recorded. Most values in the screen are low, and negative values occur.
This is an unselected part of the compounds tested.
Two or more numbers in one place are separate tests of the same structure; such repeats can differ widely.
A dash means the value is not listed here; it may have been measured.

| # | SMILES | Pks13 thioesterase | LiHisRS | Leishmania in macrophages | ClpP1P2 | Toxoplasma | CoaBC |
|---|---|---|---|---|---|---|---|
| 1 | `O=C(c1nnn(-c2ccccc2Cl)c1-c1ccccn1)N1CCSCC1` | -34.62% | 17.39% | 1.038% | -0.1217% | 13.77% | 11.21% |
| 2 | `CC(C)N(C(=O)CCc1ccco1)C1CCOCC1` | -26.1% | 19.28% | 7.808% | -8.61% | -11.52% | 3.398% |
| 3 | `O=C(Cc1ccccn1)N1C[C@H](OCc2cccnc2)[C@H]2COC[C@H]21` | -3.805% | 8.333% | - | -8.711% | - | -0.4938% |
| 4 | `O=C(O)C(F)(F)F.[H][C@]12CN(Cc3cccnc3)C(=O)[C@@]1([H])CN(S(=O)(=O)C1CC1)C2` | - | - | 9.082% | - | -2.695% | - |
| 5 | `COc1ccc(N2CCCC3(C2)CN(c2ncccn2)CCO3)cc1` (centres undefined) | -21.44% | 34.21% | -4.342% | 21.79% | 8.539% | -7.943% |
| 6 | `CC(NC(=O)NCCC(=O)OC(C)(C)C)c1nncn1C` (centres undefined) | -17.94% | 10.62% | -6.112% | -7.85% | 11.61% | 5.166% |
| 7 | `CCS(=O)(=O)N1CCc2ncnc(OC)c2CC1` | -37.32% | 15.79% | 11.55% & 20.38% | 5.071% | 26.39% | 7.822% |
| 8 | `COc1cc(C(=O)N(Cc2cnn(C)c2)C(C)C)ccc1OCC(N)=O` | -7.304% | 13.64% | -3.444% | 3.084% | 3.202% | 6.177% |
| 9 | `O=C(NCC(F)(F)F)c1coc(COc2cccc(F)c2)n1` | 12.98% | 17.11% | -4.261% | -10.09% | -4.824% | 11.68% |
| 10 | `CN(C)c1cc2c(nn1)CCN(C(=O)c1cc3c(s1)CCC3)C2` | -6.917% | 24.79% | 22.43% | -3.68% | 12.99% | 4.619% |
| 11 | `Cc1ccc(CN(Cc2ccncc2)C2CC(C)(C)NC(C)(C)C2)o1` | -16.17% | 10.31% | - | 9.105% | - | 1.695% |
| 12 | `COc1cccc2cc(CNC(=O)N3CCC(C(N)=O)CC3)oc12` | -3.701% | 8.475% | -10.9% | -6.616% | 15.34% | 3.937% |
| 13 | `CCN1C[C@@H]2[C@@H](OC)CCN(C(=O)Cc3ccsc3)[C@@H]2C1` | -18.8% | 5.769% | - | -2.528% | - | 7.593% |
| 14 | `Cn1cc(CN2CC[C@H](O)[C@@H]2Cc2ccncc2)cn1` | -11.59% | 4.511% | -16.78% | 5.609% | -2.098% | -1.542% |
| 15 | `O=C1CCCN1CC1CCCCN1C(=O)Nc1cccnc1` (centres undefined) | -5.333% | 15.79% | 24.34% | 6.329% | 10.68% | 3.629% |
| 16 | `[H][C@@]12CCN(Cc3cccnc3OC)[C@]1([H])CC[C@@H](c1nnc(C)o1)O2` | - | - | 11.13% | - | 0.1618% | - |
| 17 | `O=c1[nH]cccc1-c1nccc(C2(c3ccccc3Cl)CCNCC2)n1` | -11.38% | 29.41% | 3.768% | 1.917% | 22.57% | -2.03% |
| 18 | `O=C(C1CCCO1)N1CCC2(CC1)COCCN(Cc1cccnc1)C2.O=C(O)C(F)(F)F.O=C(O)C(F)(F)F` (centres undefined) | - | - | 54.72% | - | 9.435% | - |
| 19 | `Cc1cccc(C(=O)NCC2CCS(=O)(=O)C2)n1` (centres undefined) | -15.11% | 21.92% | 4.632% | 6.541% | 0.6928% | 2.116% & 21.36% |
| 20 | `COc1ccc(-c2ncc(-c3nccn3CCN(C)C)cn2)cc1` | -13.22% | 27.27% | 4.949% | -2.167% | 7.135% | -17.95% |
| 21 | `CCc1c(C)sc(NC(=O)CN2CCN(CC)CC2)c1C(=O)OC` | -24.11% | 18.27% | 52.48% | -11.21% | 6.106% | -47.68% |
| 22 | `c1ccc(Cn2cc(CNc3ncnc4c3CCNCC4)cn2)cc1` | -10.5% | 3.297% | 13.57% | 2.592% | 8.25% | 0.9639% |
| 23 | `c1cnn(Cc2ccc(CN3CCC4(CCCNC4)C3)cc2)c1` (centres undefined) | -2.844% | 7.2% | -6.126% | 11.27% | -18.17% | -1.809% |
| 24 | `CCOc1ncccc1C(=O)N1CCN(C)C2(CCN(C)CC2)C1` | -44.4% | 23.94% | 27.89% | 7.779% | 3.56% | - |
| 25 | `O=C1CNc2ncnc(Nc3cccc(Cn4cccn4)c3)c2N1` | 43.66% | 7.692% | 32.36% | -2.293% | -8.49% | 0.4819% |
| 26 | `O=C(O)C(F)(F)F.O=C(O)C(F)(F)F.[H][C@@]12CN(Cc3ccc(F)cc3)C[C@]1([H])OCCN2c1ccc(C)nn1` | - | - | 16.95% | - | 3.706% | - |
| 27 | `O=C(O)C(F)(F)F.[H][C@@]12CCCO[C@]1([H])[C@@H](OCC1CC1)CN2Cc1c(C)noc1C` | - | - | 36.35% | - | 0.6911% | - |
| 28 | `CCCc1cc(C(=O)N(C)Cc2cnc3ccccc3n2)n(C)n1` | -7.085% | 0.9434% | 0.5072% | -1.312% | 13.16% | 3.636% |
| 29 | `Cc1ncsc1C(=O)N(C)Cc1ccsc1` | -8.564% | 21.43% | 23.48% | -27.23% | 9.844% | -1.141% |
| 30 | `O=C(O)C(F)(F)F.[H][C@@]12CN(C(=O)c3ccccc3C)C[C@]1([H])OCCN2c1ncccn1` | - | - | -5.192% | - | 22.83% | - |
| 31 | `CN1CCCN(CCCNC2CCc3cc4c(cc32)OCCO4)CC1` (centres undefined) | -6.599% | 8.889% | -7.435% | 8.333% | 0.8999% | 0.9804% |
| 32 | `Cc1cc2c(=O)n3c(nc2s1)CCN(C(=O)c1sc(C)nc1C)CC3` | 6.748% | -176% | 6.567% | -10.72% | -31.04% | 2.107% |

4 of the entries, repeated:

O=C(O)C(F)(F)F.[H][C@@]12CN(C(=O)c3ccccc3C)C[C@]1([H])OCCN2c1ncccn1 gave Leishmania in macrophages: -5.192%; Toxoplasma: 22.83%.
O=C(Cc1ccccn1)N1C[C@H](OCc2cccnc2)[C@H]2COC[C@H]21 gave Pks13 thioesterase: -3.805%; LiHisRS: 8.333%; ClpP1P2: -8.711%; CoaBC: -0.4938%.
O=C1CCCN1CC1CCCCN1C(=O)Nc1cccnc1 (centres undefined) gave Pks13 thioesterase: -5.333%; LiHisRS: 15.79%; Leishmania in macrophages: 24.34%; ClpP1P2: 6.329%; Toxoplasma: 10.68%; CoaBC: 3.629%.
O=C(NCC(F)(F)F)c1coc(COc2cccc(F)c2)n1 gave Pks13 thioesterase: 12.98%; LiHisRS: 17.11%; Leishmania in macrophages: -4.261%; ClpP1P2: -10.09%; Toxoplasma: -4.824%; CoaBC: 11.68%.

Data taken from ChEMBL document CHEMBL3988442, “University of Dundee, Small-Polar-MMV Screening Library” (2021).